These results are taken from publication doi:10.1101/2025.01.15.633117.

The assay addresses T1, PHACTR4-V5-miniTurboID (human) (UniProt Q8IZ21).
T1 sequence: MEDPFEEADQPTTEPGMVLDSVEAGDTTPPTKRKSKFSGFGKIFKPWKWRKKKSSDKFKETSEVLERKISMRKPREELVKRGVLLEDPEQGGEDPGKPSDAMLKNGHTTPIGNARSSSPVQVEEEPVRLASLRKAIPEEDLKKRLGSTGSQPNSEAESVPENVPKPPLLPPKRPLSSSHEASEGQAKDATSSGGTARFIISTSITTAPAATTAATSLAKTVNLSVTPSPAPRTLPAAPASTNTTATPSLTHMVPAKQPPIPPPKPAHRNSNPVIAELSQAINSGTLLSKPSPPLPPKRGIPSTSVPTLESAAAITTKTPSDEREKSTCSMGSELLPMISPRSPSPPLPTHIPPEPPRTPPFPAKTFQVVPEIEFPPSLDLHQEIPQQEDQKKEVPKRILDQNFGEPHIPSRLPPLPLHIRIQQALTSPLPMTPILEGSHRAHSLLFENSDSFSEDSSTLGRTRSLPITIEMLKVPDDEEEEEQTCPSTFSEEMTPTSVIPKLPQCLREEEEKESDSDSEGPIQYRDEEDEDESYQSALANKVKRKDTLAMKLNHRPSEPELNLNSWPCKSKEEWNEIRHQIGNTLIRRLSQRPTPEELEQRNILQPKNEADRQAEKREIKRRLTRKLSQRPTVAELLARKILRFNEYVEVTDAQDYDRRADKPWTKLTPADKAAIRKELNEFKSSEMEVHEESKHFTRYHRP
Put plainly: proximity labelling.

No constants are given. Whether binding was seen depends on the method and setting. Binding seen in cells or lysates may run through a third protein. These calls come from enrichment with a bait or labelling near it, and not all partners need be listed. Where a sequence is shown, tags or fusion partners need not be part of it.

B1: VANGL1 (protein, UniProt Q8TAA9 1-524)
chain: MDTESTYSGYSYYSSHSKKSHRQGERTRERHKSPRNKDGRGSEKSVTIQPPTGEPLLGNDSTRTEEVQDDNWGETTTAITGTSEHSISQEDIARISKDMEDSVGLDCKRYLGLTVASFLGLLVFLTPIAFILLPPILWRDELEPCGTICEGLFISMAFKLLILLIGTWALFFRKRRADMPRVFVFRALLLVLIFLFVVSYWLFYGVRILDSRDRNYQGIVQYAVSLVDALLFIHYLAIVLLELRQLQPMFTLQVVRSTDGESRFYSLGHLSIQRAALVVLENYYKDFTIYNPNLLTASKFRAAKHMAGLKVYNVDGPSNNATGQSRAMIAAAARRRDSSHNELYYEEAEHERRVKKRKARLVVAVEEAFIHIQRLQAEEQQKAPGEVMDPREAAQAIFPSMARALQKYLRITRQQNYHSMESILQHLAFCITNGMTPKAFLERYLSAGPTLQYDKDRWLSTQWRLVSDEAVTNGLRDGIVFVLKCLDFSLVVNVKKIPFIILSEEFIDPKSHKFVLRLQSETSV
On to B1, for which the binding result is listed as “binds”.
